Laboratory results: PubChem BioAssay AID602203 (INSERM, 2012)
The deposit covers 999 reagents; below is an unselected part. In the full data, 85 (8.5%) got an active call. 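Unclear how single-siRNA scores of -1, 0 or +1 give the printed -4 to 4 range; calls lie near -3 or 3 and beyond.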 Unmarked entries are inactive. Not stated in the record: the amount of reagent, the time to read-out, the dose of the treatment.

Test: 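Follow-up of knock-downs that sensitize or protect A549 cells against cisplatin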 (follow-up of hits)
System: human A549 lung cancer cells
Reagent: siRNA pair against human genes
Treatment: cisplatin at a dose killing half of control-siRNA cells, given 48 h after transfection
Measured: 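Two siRNAs per gene scored +1 protective, -1 sensitizing, 0 if toxic by LDH or growth-reducing by WST-1; cisplatin given 48 h later at 50% control kill; scores summed, mean death shift versus control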
Scale: summed siRNA score for cisplatin death: higher = more siRNAs reduced cisplatin-induced cell death; change in cisplatin death versus control: higher = fewer cells died than in control
Active means: In these data the active calls have summed siRNA score for cisplatin death at about -3 or lower, or at about 3 or higher

| gene knocked down | summed siRNA score for cisplatin death | change in cisplatin death versus control (percentage points) |
| --- | --- | --- |
| LOC442180 | 1 | – |
| PGRMC1 | -2 | – |
| SLCO2A1 | 1 | – |
| IGIP | 1 | – |
| STK26 | 1 | – |
| LOC440477 | 1 | – |
| ETV1 | 0 | – |
| LOC390667 | -1 | – |
| H2AC21 | 0 | – |
| LOC440423 | 1 | – |
| CD2AP | -1 | – |
| P2RY14 | 1 | – |
| APEH | 0 | – |
| C10orf55 | 1 | – |
| BTN2A1 | -1 | – |
| NBPF14 | 1 | – |
| CKAP2 | -1 | – |
| SEC23A | 0 | – |
| LOC440855 | 1 | – |
| NR1I3 | 0 | – |
| LOC387941 | 0 | – |
| LOC388931 | 1 | – |
| PHF6 | 1 | – |
| LOC441137 | 2 | – |
| LOC92235 | -2 | – |
| ARHGAP35 | 3 (active) | 11.6 |
| RFPL2 | 1 | – |
| FPR1 | -1 | – |
| LOC440224 | 1 | – |
| ANAPC1P6 | 0 | – |
| TCFL5 | -1 | – |
| TMEM132B | -1 | – |
| PDK4 | -1 | – |
| CHEK2 | 0 | – |
| BMP7 | -4 (active) | -9.13 |
| VPS45 | 0 | – |
| SYCP2 | 1 | – |
| IFNA21 | 0 | – |
| LRIT2 | -1 | – |
| FLJ34433 | 0 | – |
| NACA | -2 | – |
| CUL3 | -2 | – |
| ASB8 | 2 | – |
| LOC343495 | 1 | – |
| PCDHGA12 | -1 | – |
| LOC441646 | 0 | – |
| OR6W1P | 0 | – |
| LOC391817 | 1 | – |
| NRBP1 | -1 | – |
| NPEPPS | -1 | – |
| PSG7 | 2 | – |
| GPC2 | -1 | – |
| TOPORS | 0 | – |
| EEF2 | 3 (active) | 6.32 |
| SUDS3 | -2 | – |
| EPHA8 | 0 | – |
| CHAT | 0 | – |
| SEMA3C | -3 (active) | -6.36 |
| GATM | 0 | – |
| OR2D2 | 0 | – |
| LOC389710 | 0 | – |
| ANKRD16 | -1 | – |
| ARL2 | -1 | – |
| SERPINA10 | -1 | – |
| RAP1GAP | 0 | – |
| CAMK4 | 1 | – |
| LOC440621 | 0 | – |
| LOC130865 | 0 | – |
| ARL4AP1 | 0 | – |
| ZBTB25 | -2 | – |
| SYT10 | 0 | – |
| TRIM33 | 1 | – |
| SETDB2 | 1 | – |

7 entries from above, reformatted.
CUL3 | summed siRNA score for cisplatin death = -2
ASB8 | summed siRNA score for cisplatin death = 2
LOC343495 | summed siRNA score for cisplatin death = 1
PCDHGA12 | summed siRNA score for cisplatin death = -1
LOC441646 | summed siRNA score for cisplatin death = 0
OR6W1P | summed siRNA score for cisplatin death = 0
LOC391817 | summed siRNA score for cisplatin death = 1
